Test results as given in paper PMC11183058.
Results are given in words; binding and its absence hold for the method and conditions named. In cells and extracts the contact can be indirect. Some binding calls cover weakened binding; strength is not graded here.

Sequences of proteins named here, by UniProt entry; tags and fusion partners are left off.
UniProt Q13330: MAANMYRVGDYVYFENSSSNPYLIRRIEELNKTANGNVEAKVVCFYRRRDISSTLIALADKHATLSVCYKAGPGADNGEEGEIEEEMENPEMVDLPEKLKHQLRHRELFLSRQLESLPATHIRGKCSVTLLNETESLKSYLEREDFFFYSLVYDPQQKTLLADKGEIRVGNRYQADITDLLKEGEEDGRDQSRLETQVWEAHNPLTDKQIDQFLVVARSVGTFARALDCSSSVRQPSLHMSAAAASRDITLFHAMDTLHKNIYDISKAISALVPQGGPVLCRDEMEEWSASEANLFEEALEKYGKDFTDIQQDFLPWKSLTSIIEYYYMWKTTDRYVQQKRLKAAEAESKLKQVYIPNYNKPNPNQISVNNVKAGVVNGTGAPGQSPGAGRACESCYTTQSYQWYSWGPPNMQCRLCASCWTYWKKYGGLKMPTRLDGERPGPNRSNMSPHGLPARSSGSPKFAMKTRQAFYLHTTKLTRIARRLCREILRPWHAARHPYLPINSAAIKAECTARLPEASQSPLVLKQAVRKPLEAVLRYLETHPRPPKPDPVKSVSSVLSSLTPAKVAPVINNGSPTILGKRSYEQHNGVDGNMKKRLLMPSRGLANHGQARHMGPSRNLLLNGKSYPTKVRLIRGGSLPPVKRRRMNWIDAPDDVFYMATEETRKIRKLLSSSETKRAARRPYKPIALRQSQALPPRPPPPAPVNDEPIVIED
UniProt Q8WXI9: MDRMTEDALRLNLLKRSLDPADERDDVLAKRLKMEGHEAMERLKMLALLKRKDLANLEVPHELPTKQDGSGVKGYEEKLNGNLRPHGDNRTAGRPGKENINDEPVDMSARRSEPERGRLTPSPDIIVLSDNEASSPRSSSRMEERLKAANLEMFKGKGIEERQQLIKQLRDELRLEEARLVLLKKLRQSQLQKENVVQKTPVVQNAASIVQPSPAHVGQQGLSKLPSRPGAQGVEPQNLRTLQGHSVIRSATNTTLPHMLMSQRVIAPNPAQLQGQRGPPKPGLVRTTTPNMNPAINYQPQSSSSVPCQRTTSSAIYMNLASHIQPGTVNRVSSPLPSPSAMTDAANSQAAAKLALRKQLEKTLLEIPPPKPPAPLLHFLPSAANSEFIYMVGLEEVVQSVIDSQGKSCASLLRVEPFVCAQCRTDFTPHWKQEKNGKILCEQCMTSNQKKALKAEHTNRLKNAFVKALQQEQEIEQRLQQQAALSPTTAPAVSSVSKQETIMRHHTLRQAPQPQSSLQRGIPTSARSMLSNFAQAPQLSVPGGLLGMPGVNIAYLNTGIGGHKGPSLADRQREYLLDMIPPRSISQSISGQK

Target: MTA1 (human (endogenous in human cell lines)) (UniProt Q13330)
Experiment: proximity ligation; Duolink in situ PLA on cells fixed with 4% paraformaldehyde and permeabilised with 0.2% Triton X-100, primary antibodies to the two endogenous proteins; cells with or without 5 Gy IR followed by 20 min recovery

binding: binds
Substance: GATAD2B (from UniProt Q8WXI9 1-593)
